In all, about 33,000 sequences were measured (“E-score (-0.5 to 0.5)”: median about -8e-05, highest 2% from about 0.23 on). The list shows a part of the results.
Biological target: T1, Nrg2 (UniProt P38082)
T1 sequence: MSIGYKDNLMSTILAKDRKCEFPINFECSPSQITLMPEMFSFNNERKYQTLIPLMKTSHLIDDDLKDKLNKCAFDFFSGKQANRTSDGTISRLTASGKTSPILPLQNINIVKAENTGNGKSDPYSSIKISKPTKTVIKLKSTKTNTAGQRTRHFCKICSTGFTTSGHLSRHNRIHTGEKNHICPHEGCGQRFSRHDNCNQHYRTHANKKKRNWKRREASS
Assay: PBM E-score (8-mer binding enrichment) (E-score (-0.5 to 0.5)); higher = stronger / more preferred TF binding
Details: protein concentration: 100 nM; construct: GST-full length
Outline: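 For each ungapped eight-base word taken together with its reverse complement, the Universal PBM Analysis Suite assigned an E-score. Binding data came from GST-tagged yeast transcription factors, applied at about 100-200 nM, on universal all-10-mer Agilent arrays made double-stranded by primer extension. Fluorescent anti-GST marked bound protein, and scans were normalised with masliner.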

Sequence	PBM E-score
GCCGTCTA	-0.0529
ATCTGTCG	0.0697
CCATGCTA	-0.0481
ATCCCTTA	0.0558
TCTTCAAA	0.0271
GCCTACCA	-0.197
CACACCTG	-0.124
ATAATGAG	0.0733
AGGCACGG	0.0978
CTCAGTTC	-0.104
AAACTGAT	0.0991
GTAACAAC	-0.099
AAGTCTTA	-0.202
GCTAACAA	-0.0183
GGCGTGCA	-0.105
TACACACA	0.0525
CTAACAAA	0.0682
CTCATCGC	-0.0484
CGTCGATC	0.0789
ACCATAGA	-0.105
GTGCATGA	0.00511
AACCAGTA	0.124
CCTGTGCG	0.129
CAACTTAA	-0.0495
CGATGTTA	0.0876

Sequence	PBM E-score
AGTAGAAA	0.0951
CACTTACC	0.15
GAAGTAAC	0.207
TGCCATAA	0.035
CGGGGAAA	0.104
GTGCAACA	-0.0879
TACCCTAA	0.107
AGGTTTAT	0.186
GTGTGATA	0.114
AGGGTACC	0.0534
GCGACATA	0.05
AAGATGGC	0.033
GATATCCC	0.105
AATTCACC	0.0809
CAATGTGC	-0.0389
GATATGCA	0.0698
ACGGATCC	0.143
ATGATCGA	-0.0111
GTCTGGAA	-0.183
GACGTTAC	-0.0985
AAGGAGCG	-0.226
GGCACAAC	-0.0416
CAAAGGTA	-0.0799
TGTTCCAA	-0.115
ACTACTGC	-0.0101

Sequence	PBM E-score
CCTCACAC	-0.145
CCAACTCA	0.0337
ACATTGAC	0.0449
GCATGAGA	0.193
GTTCCTAA	-0.0149
CGAGCTCC	0.12
AGGGGTGA	-0.0715
CAAACGGG	0.114
CTCGCTGA	0.0688
GCGTAAAC	-0.0492
CCGCAGCG	-0.126
GAACCGTA	-0.225
ATAAAACG	0.128
ACTTTGGC	-0.0761
ACTATCGA	0.0247
ATCCGTGG	-0.118
AGGCGACA	-0.111
ATACATTA	0.00796
GATATGGA	0.259
AGGTTCGG	-0.286
GCATTTCA	0.0344
AATCCGAA	-0.0278
CAGGGAAA	0.112
AAGCTGGC	-0.0595
AGACCGGC	-0.309

Sequence	PBM E-score
AATGTCCC	0.00384
CACATCTA	0.0921
GTACCCAA	-0.0929
CTGCCCTC	-0.193
CAGAACCC	0.0304
AGTATACC	0.0754
GACTAGTC	-0.183
GCGACCAC	-0.0633
AGAACCGA	-0.109
CAGGTGCG	-0.0105
AGGTCCCC	0.0498
AGTCGTGC	-0.136
ATGTTAGC	-0.135
AGTTGCAC	-0.0406
TAGTTAGA	-0.00057
ACTCAATC	0.0391
TATGGACA	0.0876
AGAACGGC	0.122
CCATGAAC	0.161
ACGTTCGC	-0.233
ACTGGCTC	-0.179
AATCAACG	-0.0167
CAAAAATA	0.204
GGTTGTAC	0.13
GTCGAAAC	0.0163

Sequence	PBM E-score
ATGAACGC	0.179
GCCACGCC	-0.108
ATAGCGTC	-0.091
CTACAGGC	-0.0785
CACTTCGA	0.0548
ACATGTTG	0.1
ACATTTCC	0.0865
GCGAGGGA	-0.135
CCAAATCC	-0.0777
GATTCAGC	-0.0365
GCCTAGAA	-0.012
CAATAATG	-0.0795
TGAAGAAA	0.0181
GAAGACAA	-0.039
TCCTATAA	-0.0317
CAGACTGG	-0.0929
CCACATCC	0.0994
CTATCCGA	-0.04
TGGGGAAA	0.189
CGGTCCTA	-0.314
ACATTGCT	-0.0115
CTTGTTGA	0.0683
AATTCTAA	0.0749
AAACATCG	-0.163
CAGCATAA	0.127

Sequence	PBM E-score
CCTAAATC	0.157
CATAAAAA	0.195
GGATTCAA	-0.0545
GACGAGGC	-0.141
TCTTCCAA	-0.147
TAGCCACA	0.0544
AACACCTT	0.0911
AGTAGACT	-0.0196
GACGTTCC	-0.00829
ATAGGTTA	-0.00463
GAATACTA	0.216
CAGGAGAA	0.106
AATCCGTG	-0.217
CGTGCGGA	-0.0446
CTAGGTTC	-0.107
CACAGATG	0.0643
GGTACACA	-0.0486
CCTTATCA	0.213
GAACCGGC	-0.079
CCTGTGAG	-0.0294
ACACCGCG	-0.0555
ACATTCTC	0.094
ACCCAGAC	0.0112
GCCCATCC	-0.164
AATCGGCT	-0.0361

Sequence	PBM E-score
CTTATTAA	0.196
CAAAGTTC	0.027
AGTATTCG	0.117
CAGGGCAG	0.038
CATTGTGC	0.0147
TACTAACA	0.172
CGGCGGCC	-0.198
TATAATGA	0.144
CAGGAATC	0.124
CGTATCCC	-0.22
CGCACCAG	0.0295
GGTTCAAA	0.0475
ATTAAGTG	0.0532
AGAACCAG	-0.0636
GCGCCACC	-0.162
GCGCGGGA	0.0263
ATTTCATC	0.198
GCGTTACA	0.027
GCAGCAGA	-0.134
ATCTGTGG	-0.0471
GCCCTGTA	0.208
AGTACTTC	0.157
GTTTTCTA	-0.0625
ATAATCCG	0.0659
GCAAAAAA	0.223

Sequence	PBM E-score
ATTCCGGA	0.228
GAAAAAGA	0.165
CCTTGGCC	-0.25
CAGAGGAG	-0.208
CAACGCTC	-0.0396
GCGTTTCC	-0.0401
AGTCGTAG	-0.0872
GCATATTA	0.133
GTACGTCA	-0.102
AGCGTGAT	0.067
ATGATTCG	0.0961
GAGTTCTA	-0.0695
TACAGGAA	0.142
CTACCTTA	-0.0504
CCTTTCAC	-0.032
ATTGGCCG	-0.0805
CAGACGCC	-0.0604
GCGTTCCA	-0.0723
ATTTGCAG	0.0718
CCGCCCAA	-0.199
AGGCGAAG	-0.0691
CACAAACC	-0.0883
ATGCACGA	0.0553
CCTCCAGG	-0.343
ACTTCTAT	0.0768

Sequence	PBM E-score
AACTACAT	-0.038
CTCAGGAC	0.0581
AAGAACCG	0.105
CATCTCTA	-0.0359
ACATTCCT	-0.00288
CCAGCACG	-0.177
AGCCGAAC	0.0896
CCCCCAAG	-0.264
GCGGTTCA	-0.0816
GCAACCTA	0.0294
GACCGCAA	0.0774
TGGGACAA	0.111
CGCCGATC	0.116
ATAAACAC	-0.0494
GCCAAAAA	0.0821
ACGAACAG	-0.0593
GCACCGCC	-0.0993
AGCAGGGC	0.0681
ACGATCTG	-0.16
CTGGTATC	0.0594
CGCCCTGA	0.167
GCATGAAA	0.107
GATCGGTA	0.0263
AAGACATT	-0.194
ACATGGAG	-0.0527

At a glance, part of the list above.
Sequence	PBM E-score
GGATTCAA	-0.0545
GACGAGGC	-0.141
TCTTCCAA	-0.147
TAGCCACA	0.0544
AACACCTT	0.0911
AGTAGACT	-0.0196
GACGTTCC	-0.00829
ATAGGTTA	-0.00463
GAATACTA	0.216
CAGGAGAA	0.106
AATCCGTG	-0.217
CGTGCGGA	-0.0446
CTAGGTTC	-0.107
CACAGATG	0.0643
GGTACACA	-0.0486
CCTTATCA	0.213
GAACCGGC	-0.079
CCTGTGAG	-0.0294
ACACCGCG	-0.0555
ACATTCTC	0.094
ACCCAGAC	0.0112
GCCCATCC	-0.164
AATCGGCT	-0.0361
CTTATTAA	0.196
CAAAGTTC	0.027
AGTATTCG	0.117
CAGGGCAG	0.038
CATTGTGC	0.0147
TACTAACA	0.172
CGGCGGCC	-0.198
TATAATGA	0.144
CAGGAATC	0.124
CGTATCCC	-0.22
CGCACCAG	0.0295
GGTTCAAA	0.0475
ATTAAGTG	0.0532
AGAACCAG	-0.0636
GCGCCACC	-0.162
GCGCGGGA	0.0263
ATTTCATC	0.198
GCGTTACA	0.027
GCAGCAGA	-0.134
ATCTGTGG	-0.0471
GCCCTGTA	0.208
AGTACTTC	0.157
GTTTTCTA	-0.0625
ATAATCCG	0.0659
GCAAAAAA	0.223
ATTCCGGA	0.228
GAAAAAGA	0.165
CCTTGGCC	-0.25
CAGAGGAG	-0.208
CAACGCTC	-0.0396
GCGTTTCC	-0.0401
AGTCGTAG	-0.0872
GCATATTA	0.133
GTACGTCA	-0.102
AGCGTGAT	0.067
ATGATTCG	0.0961
GAGTTCTA	-0.0695
TACAGGAA	0.142
CTACCTTA	-0.0504
CCTTTCAC	-0.032
ATTGGCCG	-0.0805
CAGACGCC	-0.0604
GCGTTCCA	-0.0723
ATTTGCAG	0.0718
CCGCCCAA	-0.199
AGGCGAAG	-0.0691
CACAAACC	-0.0883
ATGCACGA	0.0553
CCTCCAGG	-0.343
ACTTCTAT	0.0768
AACTACAT	-0.038
CTCAGGAC	0.0581
AAGAACCG	0.105
CATCTCTA	-0.0359
ACATTCCT	-0.00288
CCAGCACG	-0.177
AGCCGAAC	0.0896
CCCCCAAG	-0.264
GCGGTTCA	-0.0816
GCAACCTA	0.0294
GACCGCAA	0.0774
TGGGACAA	0.111
CGCCGATC	0.116
ATAAACAC	-0.0494
GCCAAAAA	0.0821
ACGAACAG	-0.0593
GCACCGCC	-0.0993
AGCAGGGC	0.0681
ACGATCTG	-0.16
CTGGTATC	0.0594
CGCCCTGA	0.167
GCATGAAA	0.107
GATCGGTA	0.0263

(cont.)

Sequence	PBM E-score
GAGCTCCA	0.186
ACAAGTGT	-0.0494
AGCATCAC	0.0726
ATAATTAA	0.264
AGTCTCAA	-0.111
GAGTGGCA	-0.0082
ACTACCTG	0.0949
GTACACAC	0.0719
ACAAGGCA	0.00328
CAGCCACG	-0.0543
CTAGTGCC	-0.142
GACAAGGA	0.0442
AAACTCTT	-0.187
AGGATACA	-0.0516
CCTTGGAA	0.126
GTGGCGGA	-0.147
ACCCAAGC	-0.261
GAACGGGA	-0.0111
CGAAGAAG	0.0928
AATCCGTC	0.15
AGAAATCC	0.0476
AGGGATTA	0.14
ACTACCAC	-0.0407
CCTGAGCA	0.0611
ACCGTCGA	-0.0695

Sequence	PBM E-score
ATTGAGAA	0.232
GGCGTAAA	-0.0744
CGTCGAAG	-0.127
ACCTGTCG	-0.117
AGTGGTAA	-0.0244
CGAAGATC	-0.0553
CGTCCATC	0.0178
TGACTAAA	-0.137
CTTGATGA	0.0989
CTAAATAC	0.0507
TAACCAAA	0.0641
TGGGCCCA	0.306
CCGACATA	0.0482
ACTAGGTA	-0.0776
AAAAGGCT	-0.0256
ATACCGAG	-0.155
CGTCATGA	0.102
ATATGTGC	0.00203
AATTAGGC	0.0337
CGTGAACA	0.172
CTCATTTC	-0.0953
ACTGGTAC	0.0907
ATTTGCCC	0.136
GGGTATTA	0.0279
ACCCGAAA	0.122

Sequence	PBM E-score
ACGAGGTC	0.0584
AGCATTAT	0.0243
GCGGGTAA	-0.0727
CATAGAGG	-0.132
GGCCGTAC	0.0111
CCACCTGC	0.0233
CAGTCATC	-0.306
CGTACCGA	-0.105
CCTTTCTC	-0.113
CTGCATCC	0.0188
ACAAACAA	0.126
ATATATTC	0.131
CCCCCATC	-0.319
CCTAATTA	0.00405
AATCCGGC	-0.12
GTCCTTAA	0.123
CGTAATAG	-0.00104
TAGGTCAA	0.055
ATAGTCTA	-0.136
TCCGTCCA	0.0419
GCGGTTAC	0.112
CAAGTTTA	0.0601
GATCGAAC	-0.0425
CCCAGTGC	0.037
GAGCTTCA	0.0629

Sequence	PBM E-score
AGTTTCTG	0.175
GTTTTGCA	0.11
CGAACGAA	0.138
AGCTCTCA	0.12
CTAAGCAA	-0.172
AAGCTCTG	-0.126
GTTTAGTA	0.147
ACGAATTG	0.0986
TAACAGCA	0.127
ACGGTTAG	-0.312
GCTGAGGA	-0.123
AACAGCAC	0.0478
AGGAATGC	-0.118
AATCCGAG	0.0199
CTTTGACC	0.0538
TCTTTCAA	0.0473
GGCCTTGA	0.00166
CGGATTCA	-0.0792
GCATCGGA	0.0245
AATCTCTC	-0.0607
ACGTACCA	-0.107
CCCTCCTC	-0.161
ACCACTCG	0.0998
GTAGTGGA	0.152
AGTCTTTG	-0.25

Sequence	PBM E-score
AAATAAGT	0.11
ATAGCAGC	-0.104
ATACATAC	0.0623
ACCCTAGC	0.0587
AACACTGA	0.195
GCAGAGCC	-0.212
CTATTGCC	-0.0633
GGGCTAAC	-0.0739
AACTCATC	0.0905
CGGCGTGC	-0.125
AGAATCAA	0.103
GTAATCCA	0.0761
AACGGAAG	0.0569
CCGTTCAA	0.154
CACGCTAG	-0.0901
ACTCCATG	-0.101
CCGAAACC	-0.246
GTGCTACA	-0.208
CTTGGCCC	-0.224
